# Reference: PubChem BioAssay AID1224830 (NIAID, 2016)
# Aim: 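Host factors that control LPS-induced TNF expression in human macrophages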 (primary screen)
# System: human THP-1 monocytic leukaemia cells, TNF dual-luciferase reporter clone, PMA-differentiated to macrophage-like cells
# Knock-down reagent: siRNA pool against human genes, 50 nM
# Timing: LPS for 4 h, given about 3 days after siRNA transfection
# Conditions: bacterial LPS (TLR4 ligand), 10 ng/ml
# Measurement: 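Ratio of firefly to renilla light, scaled to the plate median and expressed as a robust z-score per replicate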
# Scale: TNF reporter robust z-score: higher = stronger TNF reporter response to LPS
# Rule for the call: 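a well is active when its z-score exceeds 2.8 or falls below -1.5; control wells carry no call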
# The whole screen tested about 18,000 reagents; below is a random part of them. About 2,900 of them (16%) count as active. 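Calls are made per well; low scores hint the gene aids the LPS response, high scores that it dampens it.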 A number with no mark means an inactive call. Repeated entries: four replicate wells of each siRNA pool.
gene symbol,TNF reporter robust z-score
ABCA12 (ATP binding cassette subfamily A member 12),-1.48
ABCA12 (ATP binding cassette subfamily A member 12),-1.38
ABCA12 (ATP binding cassette subfamily A member 12),-1.53 (active)
ABCA12 (ATP binding cassette subfamily A member 12),-1.21
NPEPPS (aminopeptidase puromycin sensitive),0.81
NPEPPS (aminopeptidase puromycin sensitive),1.14
NPEPPS (aminopeptidase puromycin sensitive),0.43
NPEPPS (aminopeptidase puromycin sensitive),1.93
MMAB (metabolism of cobalamin associated B),0.31
MMAB (metabolism of cobalamin associated B),0.19
MMAB (metabolism of cobalamin associated B),0.47
MMAB (metabolism of cobalamin associated B),1.29
DEFB112 (defensin beta 112),1.41
DEFB112 (defensin beta 112),-0.82
DEFB112 (defensin beta 112),-0.7
DEFB112 (defensin beta 112),-0.56
LCE1E (late cornified envelope 1E),0.23
LCE1E (late cornified envelope 1E),-0.62
LCE1E (late cornified envelope 1E),-1.22
LCE1E (late cornified envelope 1E),-0.86
STS (steroid sulfatase),-1.39
STS (steroid sulfatase),-0.91
STS (steroid sulfatase),-0.98
STS (steroid sulfatase),-1.35
TMEM147 (transmembrane protein 147),-0.99
TMEM147 (transmembrane protein 147),-0.02
TMEM147 (transmembrane protein 147),-0.94
TMEM147 (transmembrane protein 147),0.06
POLR3H (RNA polymerase III subunit H),0.47
POLR3H (RNA polymerase III subunit H),0.69
POLR3H (RNA polymerase III subunit H),0.27
POLR3H (RNA polymerase III subunit H),0.43
PCP4 (Purkinje cell protein 4),1.23
PCP4 (Purkinje cell protein 4),1.51
PCP4 (Purkinje cell protein 4),1.44
PCP4 (Purkinje cell protein 4),0.81
MAGEC2 (MAGE family member C2),-1.2
MAGEC2 (MAGE family member C2),-0.94
MAGEC2 (MAGE family member C2),-1.28
MAGEC2 (MAGE family member C2),-1.01
GPR157 (G protein-coupled receptor 157),1.14
GPR157 (G protein-coupled receptor 157),0.44
GPR157 (G protein-coupled receptor 157),0.14
GPR157 (G protein-coupled receptor 157),-1.06
TSPAN10 (tetraspanin 10),0.61
TSPAN10 (tetraspanin 10),0.47
TSPAN10 (tetraspanin 10),-0.48
TSPAN10 (tetraspanin 10),-0.3
CDK5 (cyclin dependent kinase 5),-0.21
CDK5 (cyclin dependent kinase 5),-0.31
CDK5 (cyclin dependent kinase 5),-0.16
CDK5 (cyclin dependent kinase 5),-0.22
SPARCL1 (SPARC like 1),-1.42
SPARCL1 (SPARC like 1),-0.31
SPARCL1 (SPARC like 1),-0.71
SPARCL1 (SPARC like 1),-0.51
NELL1 (neural EGFL like 1),-0.14
NELL1 (neural EGFL like 1),0.24
NELL1 (neural EGFL like 1),-0.65
NELL1 (neural EGFL like 1),0.25
BIRC2 (baculoviral IAP repeat containing 2),1.13
BIRC2 (baculoviral IAP repeat containing 2),0.27
BIRC2 (baculoviral IAP repeat containing 2),1.29
BIRC2 (baculoviral IAP repeat containing 2),0.74
SLC2A6,-0.61
SLC2A6,-0.34
SLC2A6,-0.43
SLC2A6,-0.23
ACRV1 (acrosomal vesicle protein 1),-1.73 (active)
ACRV1 (acrosomal vesicle protein 1),-1.18
ACRV1 (acrosomal vesicle protein 1),-1.72 (active)
ACRV1 (acrosomal vesicle protein 1),-0.61
WNT3A (Wnt family member 3A),-1.49
WNT3A (Wnt family member 3A),-1.07
WNT3A (Wnt family member 3A),-1.01
WNT3A (Wnt family member 3A),-0.69
